This assay deals with B9-Flag (P. berghei B9 tagged with a triple Flag epitope at the endogenous locus) (P. berghei). Kind of assay: affinity purification with mass spectrometry; B9-Flag salivary gland sporozoites lysed in 0.5% NP40, precleared, precipitated with Anti-FLAG M2 Affinity Gel 2 h at 4°C; PbGFP sporozoites as control; five independent biological replicates.

No constants are given. Whether binding was seen depends on the method and setting. In cells and extracts the contact can be indirect. These calls come from enrichment with a bait or labelling near it, and not all partners need be listed. No binding means not detected with the bait.

B1: P52 of P. berghei sporozoites (protein, UniProt Q4Z4D2 24-449)
chain: NVTNPNTTLGHFEICKINIYSGDAEECVLENEFGKMFLFICDIDYNEMSKNIVLPSECAKKTYIDHVNPNGTSPEVNTYDIFPDLIGANESKFRDKFYFYGTPYSSKDIDFICLCFSEVKPDIKHIIKMSFKKMTKKIKGCDFGDNVPTKKDLTNGKALYENSSCHIYAYPGDVIGINCYKKDINNIYNNNLELSPNNCFHNVYYENDILLSSKNLIPNSRVIPDPSNDVKLSKMHSYMSYIILPDEINENVKISCSCKRNEYVGTMFLYVNTSKNILTYTGNNVEETAHLNDHYISIGDMWDMGLYENPEQIQSIISNHANKKYYEHMKIYKGNKMDPSDEDESNENAHNGNRANKDANYSEKMVDNRRQKNNSLNHTNYHGNYNENDNEINISTHDKYYEDHHLGSNRPLRKKRTFWQNLFGTS
As to B1, the binding entry is listed as “no binding”.

For the origin of these results see article PMC9906020.
